Experimental data from PMC2727002.
Results are given in words; binding and its absence hold for the method and conditions named. In cells and extracts the contact can be indirect. Here binding means that the protein was enriched with, or labelled near, the bait; the list need not be complete. For part of these data: A no says only that the protein was not detected with the bait. Where a sequence is shown, tags or fusion partners need not be part of it.

T1: Tap-tagged Not2 (yeast) (UniProt P06100)
T1 sequence: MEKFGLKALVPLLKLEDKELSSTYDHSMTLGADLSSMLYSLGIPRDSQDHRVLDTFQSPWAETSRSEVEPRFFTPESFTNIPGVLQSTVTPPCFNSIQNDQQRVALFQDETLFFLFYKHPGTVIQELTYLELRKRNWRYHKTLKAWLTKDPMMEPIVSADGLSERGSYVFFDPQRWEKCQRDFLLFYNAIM

T2: Tap-tagged Not4 (yeast) (UniProt P34909)
T2 sequence: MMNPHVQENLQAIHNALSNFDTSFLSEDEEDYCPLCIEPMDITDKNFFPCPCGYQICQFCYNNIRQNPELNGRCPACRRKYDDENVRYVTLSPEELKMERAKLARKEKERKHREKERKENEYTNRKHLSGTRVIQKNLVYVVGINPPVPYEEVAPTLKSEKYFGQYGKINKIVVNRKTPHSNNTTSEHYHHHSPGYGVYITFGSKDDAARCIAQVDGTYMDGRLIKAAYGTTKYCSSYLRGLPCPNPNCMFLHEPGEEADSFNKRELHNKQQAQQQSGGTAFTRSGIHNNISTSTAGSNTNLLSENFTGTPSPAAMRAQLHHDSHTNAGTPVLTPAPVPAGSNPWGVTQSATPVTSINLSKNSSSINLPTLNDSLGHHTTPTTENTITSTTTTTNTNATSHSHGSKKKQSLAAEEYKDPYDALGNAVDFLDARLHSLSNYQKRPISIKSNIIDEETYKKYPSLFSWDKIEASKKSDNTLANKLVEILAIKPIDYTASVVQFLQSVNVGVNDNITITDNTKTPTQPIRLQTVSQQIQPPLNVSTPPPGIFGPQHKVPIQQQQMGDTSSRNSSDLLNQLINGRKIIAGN

T3: Tap-tagged Not5 (yeast) (UniProt Q12514)
T3 sequence: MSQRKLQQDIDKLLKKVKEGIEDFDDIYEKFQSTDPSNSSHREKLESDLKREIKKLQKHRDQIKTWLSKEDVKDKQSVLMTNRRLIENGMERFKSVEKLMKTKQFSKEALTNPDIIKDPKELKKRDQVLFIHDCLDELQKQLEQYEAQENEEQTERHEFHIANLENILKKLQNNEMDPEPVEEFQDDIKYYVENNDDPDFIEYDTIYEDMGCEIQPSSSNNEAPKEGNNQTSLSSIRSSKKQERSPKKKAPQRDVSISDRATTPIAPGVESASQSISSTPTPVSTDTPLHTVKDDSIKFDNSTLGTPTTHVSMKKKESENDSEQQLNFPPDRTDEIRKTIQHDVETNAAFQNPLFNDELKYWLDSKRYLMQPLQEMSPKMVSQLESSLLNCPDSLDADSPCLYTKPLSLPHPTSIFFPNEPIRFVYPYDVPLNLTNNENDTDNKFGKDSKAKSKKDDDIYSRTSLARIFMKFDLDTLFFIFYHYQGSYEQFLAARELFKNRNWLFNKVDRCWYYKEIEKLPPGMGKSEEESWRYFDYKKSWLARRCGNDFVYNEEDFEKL


Key:
Assay in all cases: affinity purification with mass spectrometry; large-scale tandem affinity purification of Tap-tagged proteins from 2 g of total extract of wild-type, not4Δ or caf40Δ cells, 150 mM NaCl; SDS-PAGE, coomassie, bands identified by MALDI-Tof fingerprint
Tap-tagged Not2 (yeast) = biological target: T1, Tap-tagged Not2 (yeast)
Tap-tagged Not4 (yeast) = biological target: T2, Tap-tagged Not4 (yeast)
Tap-tagged Not5 (yeast) = biological target: T3, Tap-tagged Not5 (yeast)

| binding (Tap-tagged Not2 (yeast)) | binding (Tap-tagged Not4 (yeast)) | binding (Tap-tagged Not5 (yeast)) | Binder |
| --- | --- | --- | --- |
| binds | binds | – | Rrp42 (protein, UniProt Q12277 1-265) MSLSVAEKSYLYDSLASTPSIRPDGRLPHQFRPIEIFTDFLPSSNGSSRIIASDGSECIVSIKSKVVDHHVENELLQVDVDIAGQRDDALVVETITSLLNKVLKSGSGVDSSKLQLTKKYSFKIFVDVLVISSHSHPVSLISFAIYSALNSTYLPKLISAFDDLEVEELPTFHDYDMVKLDINPPLVFILAVVGNNMLLDPAANESEVANNGLIISWSNGKITSPIRSVALNDSNVKSFKPHLLKQGLAMVEKYAPDVVRSLENL |
| binds | binds | binds | Rrp41 (protein, UniProt P46948 1-246) MSRLEIYSPEGLRLDGRRWNELRRFESSINTHPHAADGSSYMEQGNNKIITLVKGPKEPRLKSQMDTSKALLNVSVNITKFSKFERSKSSHKNERRVLEIQTSLVRMFEKNVMLNIYPRTVIDIEIHVLEQDGGIMGSLINGITLALIDAGISMFDYISGISVGLYDTTPLLDTNSLEENAMSTVTLGVVGKSEKLSLLLVEDKIPLDRLENVLAIGIAGAHRVRDLMDEELRKHAQKRVSNASAR |
| – | no binding | – | Caf130 (protein, UniProt P53280 1-1122) MTKKKAATNYAERQNLASEDSSGDSVHFKDFIPLQELLKDKNYVPSVENLEKILYNETMFNDQKICSNLLLEALIITLFTTISGKSALRLIQTSSLKERKSWAQSFENNSSSYASIVLSWKDNDILLLKFLRFLLANKTAPLQINRYNLPEYKLPLSFLIVSKITIPSILLNETYNLLKDYLYSITGRIESLISCSSTFDKPALVVRKILKDYNRMIECRNFYFWYSFNAENRVNLTFSDNISLLMENDEGNAGSGLDDSRFDHQKQPREAIMGRTINDQEQIYSFELNQDGTLEIPNVMEHSLLRHELLFKILNLTTVLTPLLELQFSTLCGLVDPLMQPTPNDKHIISIDFLFQLFLGLMSQSIKTSQEHNDHYDWKFYMCFNMQKIIDATMLRLNCFDFDILNSVNNTDNAVHWKTQLHRWLPHGLNTQDLELLYMIDILAVYTIYKLYEKIPIQLNPFLFSLISLWKNLSCVILLALEIDRIEEENGTYETPLMVRATIRGAAALRSVIATVLNGLVKNNDHDFKHESLNTFMSPYGRKLCHGALYADLRSHTASLLALGASIEDVTDLFADLQSGDRFDEDIRYMFDYECEDYDESFSESDHGGLDESVVNPTEKIASGSNNVFFRRRCNCIFNDDKLVAEDGANEAFGSTNSENVEGAMHNNRNAVHNATTATSDHVVTSPNPLSVRSRSTFEFDYSGEDWRDVPRDFNMYYSPSYSFIHEPKLDVIFSLTLRGATEKLNKEESILLVRSVASCVRNEQDQMILADLESNFSASINGDVEGEGNTKMSKIDNEDLRRTTPDDIYEIWSEESAFERMLNVNHDVAWRLMDEMLMCTGYRRILIWFLTHLELKHSLIYYVFELIMGLRGKPFSGEASDQDKKDDMIYEILKKKQKNEDASGLPFSRQGPIVLSDIETKMLLQEFFMNAAIFLSSKNNEEENEDGEKISLYSLGLVRLICYMVQTLIANDKFFFTKSECTFELQTLLMTWIGILPEAKDLFFKIKTRLAMEEEDSADTMQHEGRKNSDIEKKLNAKPASELNLKLLNLFPSKPANKDDSSPINTLRSFIADYSFDTQVNPPGRRVVFYDGKILPLPKADKPIPLHEYITLAELDVGDSE |
| – | no binding | binds | Not2 (protein, UniProt P06100 1-191) MEKFGLKALVPLLKLEDKELSSTYDHSMTLGADLSSMLYSLGIPRDSQDHRVLDTFQSPWAETSRSEVEPRFFTPESFTNIPGVLQSTVTPPCFNSIQNDQQRVALFQDETLFFLFYKHPGTVIQELTYLELRKRNWRYHKTLKAWLTKDPMMEPIVSADGLSERGSYVFFDPQRWEKCQRDFLLFYNAIM |
| binds | binds | – | Ccr4 (protein, UniProt P31384 1-837) MNDPSLLGYPNVGPQQQQQQQQQQHAGLLGKGTPNALQQQLHMNQLTGIPPPGLMNNSDVHTSSNNNSRQLLDQLANGNANMLNMNMDNNNNNNNNNNNNNNNGGGSGVMMNASTAAVNSIGMVPTVGTPVNINVNASNPLLHPHLDDPSLLNNPIWKLQLHLAAVSAQSLGQPNIYARQNAMKKYLATQQAQQAQQQAQQQAQQQVPGPFGPGPQAAPPALQPTDFQQSHIAEASKSLVDCTKQALMEMADTLTDSKTAKKQQPTGDSTPSGTATNSAVSTPLTPKIELFANGKDEANQALLQHKKLSQYSIDEDDDIENRMVMPKDSKYDDQLWHALDLSNLQIFNISANIFKYDFLTRLYLNGNSLTELPAEIKNLSNLRVLDLSHNRLTSLPAELGSCFQLKYFYFFDNMVTTLPWEFGNLCNLQFLGVEGNPLEKQFLKILTEKSVTGLIFYLRDNRPEIPLPHERRFIEINTDGEPQREYDSLQQSTEHLATDLAKRTFTVLSYNTLCQHYATPKMYRYTPSWALSWDYRRNKLKEQILSYDSDLLCLQEVESKTFEEYWVPLLDKHGYTGIFHAKARAKTMHSKDSKKVDGCCIFFKRDQFKLITKDAMDFSGAWMKHKKFQRTEDYLNRAMNKDNVALFLKLQHIPSGDTIWAVTTHLHWDPKFNDVKTFQVGVLLDHLETLLKEETSHNFRQDIKKFPVLICGDFNSYINSAVYELINTGRVQIHQEGNGRDFGYMSEKNFSHNLALKSSYNCIGELPFTNFTPSFTDVIDYIWFSTHALRVRGLLGEVDPEYVSKFIGFPNDKFPSDHIPLLARFEFMKTNTGSKKV |
| binds | binds | – | Caf1 (protein, UniProt P39008 1-433) MQSMNVQPRVLAVGGEQFFSQRQASEQHQQQNMGPQVYSPKVNRARMFPQGMPVNTINGSVNQEMNNAYLLKQKNEPLLTQQQQQQQQQQQPFNIGTPVSVASLPPGLNVLQQQQQQQQQQQQQQQGVGLNRPLASQLPKHLTNQSMPPIFLPPPNYLFVRDVWKSNLYSEFAVIRQLVSQYNHVSISTEFVGTLARPIGTFRSKVDYHYQTMRANVDFLNPIQLGLSLSDANGNKPDNGPSTWQFNFEFDPKKEIMSTESLELLRKSGINFEKHENLGIDVFEFSQLLMDSGLMMDDSVTWITYHAAYDLGFLINILMNDSMPNNKEDFEWWVHQYMPNFYDLNLVYKIIQEFKNPQLQQSSQQQQQQQYSLTTLADELGLPRFSIFTTTGGQSLLMLLSFCQLSKLSMHKFPNGTDFAKYQGVIYGIDGDQ |
